Measurements reported in PMC7819943, “Rice protein-binding microarrays: a tool to detect cis-acting elements near promoter regions in rice”.
The list shows a part of the results.

target: T1, OsSMF1 (Oryza sativa, UniProt Q6ZLB0 1-436); test: protein-binding microarray (RPBM); PBS, 2% BSA, 51.3 ng/ul salmon testes DNA, 50 uM zinc acetate, 200 nM TF, 25 C, 1 h; high values mean tight binding; details: protein: recombinant; tags: N-terminal polyhistidine and DsRed monomer fusion (pET32a); chain copies: 2; label: CyDye5-dUTP incorporated in the synthesized complementary strand; 3' TTTTT single-stranded linker to array surface; dsDNA, one strand shown
T1 sequence: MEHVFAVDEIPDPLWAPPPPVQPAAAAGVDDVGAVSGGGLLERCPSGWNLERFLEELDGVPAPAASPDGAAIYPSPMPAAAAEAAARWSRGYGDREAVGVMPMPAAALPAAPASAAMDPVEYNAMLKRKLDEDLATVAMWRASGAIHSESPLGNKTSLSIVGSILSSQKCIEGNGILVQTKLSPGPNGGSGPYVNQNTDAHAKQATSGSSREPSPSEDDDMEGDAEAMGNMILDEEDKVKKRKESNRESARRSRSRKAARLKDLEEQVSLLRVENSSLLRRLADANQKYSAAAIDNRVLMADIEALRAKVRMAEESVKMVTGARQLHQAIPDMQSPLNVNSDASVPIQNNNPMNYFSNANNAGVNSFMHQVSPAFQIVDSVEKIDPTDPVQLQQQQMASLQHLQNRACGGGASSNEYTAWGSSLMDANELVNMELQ
Method in brief: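 Transcription factors were made in E. coli BL21-CodonPlus as N-terminal fusions to a polyhistidine tag and DsRed, then purified on Ni–NTA. After primer extension with Cy5-dUTP and blocking with 2% BSA, a custom Agilent array was exposed for 1 h at 25 °C to 200 nM protein in PBS, 2% BSA, salmon testes DNA and 50 µM zinc acetate. Washed arrays were scanned on an Axon 4000B, and the binding signal is per-feature fluorescence intensity in arbitrary units.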

Row | Sequence | binding signal
1 | GTTGGTTCTTGCAAGTTGGAGAGCTGATCCTATATAAAGCCGGAGTCACCTAGTGCAG | 14700 fluorescence intensity (a.u.)
2 | ACCTCCACCTCCACCTCCCTCCCCGTCCCCGTCGTCAGCGCGGAGTCACCTAGTGCAG | 3650 fluorescence intensity (a.u.)
3 | AGAGTTCGAAGGCTAACCGACATATACTGATCCCAACAAGCGGAGTCACCTAGTGCAG | 3260 fluorescence intensity (a.u.)
4 | ACAACTAGTCCTCAGCCTAGCTTTGGTCGATGGTCATGATCGGAGTCACCTAGTGCAG | 4400 fluorescence intensity (a.u.)
5 | CCCATTTGCTGGTGTTTTAGCCACTCGTCGTATCACAACACGGAGTCACCTAGTGCAG | 21100 fluorescence intensity (a.u.)
6 | TTGGATTCAAATTGCCACATAAGCTCCACGTCAAATGCCACGGAGTCACCTAGTGCAG | 21300 fluorescence intensity (a.u.)
7 | AACATGTTAGTGGGTTATGTATGGCTAAGCGACTCTATAACGGAGTCACCTAGTGCAG | 22100 fluorescence intensity (a.u.)
8 | GAAGTATACTTTATTATCCGCACTGCTCACGTGGTGGCTACGGAGTCACCTAGTGCAG | 4750 fluorescence intensity (a.u.)
9 | AGGCATAGGCATAGGCATGGCCAGCCAGCCGCGTCGACGTCGGAGTCACCTAGTGCAG | 3260 fluorescence intensity (a.u.)
10 | AGAGAGAGGGGAGAGGGGTGGAAGGGGAATATGGTAGCTGCGGAGTCACCTAGTGCAG | 3330 fluorescence intensity (a.u.)
11 | AAGGAGGCAGCACCGATCCAAACGGCCCGCGTGGCGTTCGCGGAGTCACCTAGTGCAG | 4120 fluorescence intensity (a.u.)
12 | CGCCCAGGCCTTCGCAGTGCTGACTCAATAGCATCCACCCCGGAGTCACCTAGTGCAG | 7440 fluorescence intensity (a.u.)
13 | GCCCTGGACGCGGGCGTGGGCGTGGCGGAACCAGAGCTCCCGGAGTCACCTAGTGCAG | 4290 fluorescence intensity (a.u.)
14 | TGGCCACATATGCCACCTAGTTTAAATCAACTTGGGCAAACGGAGTCACCTAGTGCAG | 3150 fluorescence intensity (a.u.)
15 | GAATGCTACGAATGACGCTGCACGGCGCGTGTTCTCATTTCGGAGTCACCTAGTGCAG | 3510 fluorescence intensity (a.u.)
16 | GGCCCGAATGTATTGCGGCCTACGTGTGGGGCCGTACTTACGGAGTCACCTAGTGCAG | 3490 fluorescence intensity (a.u.)
17 | CCTATGTAGTACAGTGGTAGTAGAATATCCACGGTTTTATCGGAGTCACCTAGTGCAG | 6670 fluorescence intensity (a.u.)
18 | ATGTGTGTGTGATATGCTGATGTAACTATCAGGTATGCACCGGAGTCACCTAGTGCAG | 3700 fluorescence intensity (a.u.)
19 | GGGTGGGTGATCTATCGATACAATGCATGCGTGGGCTTCTCGGAGTCACCTAGTGCAG | 3900 fluorescence intensity (a.u.)
20 | CCCATGCGAGGCGTACGTGCGGTGCGGTGTTCAGACTCTCCGGAGTCACCTAGTGCAG | 3300 fluorescence intensity (a.u.)
21 | GTTTTGCTTAGAGGATGTCTCCAGTTTTGTTGTGTGTCACCGGAGTCACCTAGTGCAG | 3950 fluorescence intensity (a.u.)

Quoted at random: 3 records from the list, in no set order.
Row | Sequence | binding signal
21 | GTTTTGCTTAGAGGATGTCTCCAGTTTTGTTGTGTGTCACCGGAGTCACCTAGTGCAG | 3950 fluorescence intensity (a.u.)
9 | AGGCATAGGCATAGGCATGGCCAGCCAGCCGCGTCGACGTCGGAGTCACCTAGTGCAG | 3260 fluorescence intensity (a.u.)
12 | CGCCCAGGCCTTCGCAGTGCTGACTCAATAGCATCCACCCCGGAGTCACCTAGTGCAG | 7440 fluorescence intensity (a.u.)

(next part)

Row | Sequence | binding signal
22 | TCCCGGCAGTTCTTACCCTGCATCATCAGAGTGGTCATTACGGAGTCACCTAGTGCAG | 4260 fluorescence intensity (a.u.)
23 | CGGCGACGACCTTCAGCGATGTTTTGTCACTGTCCCCGGCCGGAGTCACCTAGTGCAG | 3680 fluorescence intensity (a.u.)
24 | CGGCGCGTGCGCCACCGCAGCGGCGCCATCGCCGTCGCCGCGGAGTCACCTAGTGCAG | 4120 fluorescence intensity (a.u.)
25 | GTCCCCGGCCTCGGCGCGCGGCGAGCACCGTGCCGCCCCACGGAGTCACCTAGTGCAG | 24000 fluorescence intensity (a.u.)
26 | ACTGTTTAGTAGTTCAGAAACTCTAGGAAGTGAAGGTTGACGGAGTCACCTAGTGCAG | 28300 fluorescence intensity (a.u.)
27 | CCCAACATTGTGGGGCCCACATGTCAGTGTGAGGGACCACCGGAGTCACCTAGTGCAG | 4410 fluorescence intensity (a.u.)
28 | CAATCAGACACATCACACGGTCTACCAAACCTACAAACCGCGGAGTCACCTAGTGCAG | 13800 fluorescence intensity (a.u.)
29 | TTCTATGTTTAATACTTCAAATATGTGTCCGTATATTTCACGGAGTCACCTAGTGCAG | 3480 fluorescence intensity (a.u.)
30 | CCATGTTCTTCCTCCTCCACCACCTCCACTGCTACATATCCGGAGTCACCTAGTGCAG | 3570 fluorescence intensity (a.u.)
31 | AATAATTAATTCATTTGTTTATACACTTAAATAGCTAATACGGAGTCACCTAGTGCAG | 11000 fluorescence intensity (a.u.)
32 | ATCTAGAAAGATGACCTACCTGAGGTGTAATTTTACACTCCGGAGTCACCTAGTGCAG | 3640 fluorescence intensity (a.u.)
33 | ATGATAGATTACATATTTACAGTGATTAAGCATAGCATTACGGAGTCACCTAGTGCAG | 3510 fluorescence intensity (a.u.)
34 | ACCCGGTGATCCGCTAATAGATACGTTGGTTTACAATAGTCGGAGTCACCTAGTGCAG | 3670 fluorescence intensity (a.u.)
35 | TGCGTTTCTCAAATTATACAAGTCATGATGGATATGTCGTCGGAGTCACCTAGTGCAG | 4180 fluorescence intensity (a.u.)
36 | AAACATTGACTCTCTCCGTCCCTAAATATTTAACTGTCCGCGGAGTCACCTAGTGCAG | 6930 fluorescence intensity (a.u.)
37 | ACCGAAGTATTCTCGGTTAGTTGCGCCACGCCATGCACGCCGGAGTCACCTAGTGCAG | 4940 fluorescence intensity (a.u.)
38 | CAAGCCGTCCACCCACTTCCGCTTCCCCACGTGCCGCTCGCGGAGTCACCTAGTGCAG | 3840 fluorescence intensity (a.u.)
39 | TAGATTCGATATGAACGGTCCAGATCCAGGTGGAGGGAGGCGGAGTCACCTAGTGCAG | 3820 fluorescence intensity (a.u.)
40 | GAGATGAAGAGGGTACACATGACAGGTGGGAGGTAGAATTCGGAGTCACCTAGTGCAG | 3200 fluorescence intensity (a.u.)
41 | ACTAAGCTTCAATCTGCCATCATCATGGATATGATCATTGCGGAGTCACCTAGTGCAG | 3870 fluorescence intensity (a.u.)
42 | ACACAGGTCCGGCACAAACCAAACTATCTCCCCGTGTCAACGGAGTCACCTAGTGCAG | 3760 fluorescence intensity (a.u.)
